The record followed here is publication PMC4941050.

Protein sequences, listed by entry. Tags and fused reporters are not part of them. Lines headed by an entry give the natural chain unless they say otherwise; changes in a name come on top.
UniProt P26358: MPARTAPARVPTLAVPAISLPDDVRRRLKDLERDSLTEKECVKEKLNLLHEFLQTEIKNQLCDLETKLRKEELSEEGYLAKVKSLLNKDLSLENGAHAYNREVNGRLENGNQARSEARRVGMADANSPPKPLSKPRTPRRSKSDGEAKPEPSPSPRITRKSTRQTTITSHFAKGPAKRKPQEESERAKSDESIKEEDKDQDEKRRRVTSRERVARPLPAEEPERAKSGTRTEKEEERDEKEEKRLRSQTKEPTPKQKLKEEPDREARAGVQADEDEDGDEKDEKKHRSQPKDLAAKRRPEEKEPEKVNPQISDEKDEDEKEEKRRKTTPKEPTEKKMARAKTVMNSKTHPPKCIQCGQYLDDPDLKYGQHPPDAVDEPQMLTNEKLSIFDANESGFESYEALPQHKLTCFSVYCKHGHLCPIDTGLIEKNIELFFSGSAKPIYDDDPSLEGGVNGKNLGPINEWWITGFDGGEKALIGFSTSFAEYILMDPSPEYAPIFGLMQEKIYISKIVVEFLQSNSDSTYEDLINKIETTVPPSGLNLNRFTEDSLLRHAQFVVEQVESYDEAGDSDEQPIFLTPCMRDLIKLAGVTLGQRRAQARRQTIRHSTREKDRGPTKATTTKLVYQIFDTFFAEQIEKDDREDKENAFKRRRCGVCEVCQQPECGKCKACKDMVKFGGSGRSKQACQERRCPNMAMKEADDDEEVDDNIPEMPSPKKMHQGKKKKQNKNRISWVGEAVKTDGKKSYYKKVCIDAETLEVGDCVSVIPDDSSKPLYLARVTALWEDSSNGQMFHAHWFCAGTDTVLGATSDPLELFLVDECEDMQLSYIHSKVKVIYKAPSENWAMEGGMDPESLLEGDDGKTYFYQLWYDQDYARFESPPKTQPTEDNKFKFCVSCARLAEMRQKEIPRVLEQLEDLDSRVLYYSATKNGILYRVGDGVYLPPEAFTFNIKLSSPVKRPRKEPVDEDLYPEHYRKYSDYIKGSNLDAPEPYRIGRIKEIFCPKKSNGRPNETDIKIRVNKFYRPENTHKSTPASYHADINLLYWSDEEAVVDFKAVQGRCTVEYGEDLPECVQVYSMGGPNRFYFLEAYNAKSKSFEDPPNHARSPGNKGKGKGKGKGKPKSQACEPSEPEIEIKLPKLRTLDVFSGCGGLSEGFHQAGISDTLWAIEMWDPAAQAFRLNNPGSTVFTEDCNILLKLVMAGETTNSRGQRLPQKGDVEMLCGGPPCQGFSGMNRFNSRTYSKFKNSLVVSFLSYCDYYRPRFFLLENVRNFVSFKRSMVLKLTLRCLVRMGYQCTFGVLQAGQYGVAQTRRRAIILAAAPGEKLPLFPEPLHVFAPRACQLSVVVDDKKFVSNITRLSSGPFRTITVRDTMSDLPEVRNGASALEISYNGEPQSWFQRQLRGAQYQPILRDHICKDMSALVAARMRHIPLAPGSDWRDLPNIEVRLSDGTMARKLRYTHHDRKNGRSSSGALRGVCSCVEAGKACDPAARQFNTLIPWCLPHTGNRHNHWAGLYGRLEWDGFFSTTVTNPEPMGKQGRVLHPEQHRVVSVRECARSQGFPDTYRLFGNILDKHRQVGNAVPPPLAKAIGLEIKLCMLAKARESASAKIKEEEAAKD

A weaker result is weaker than the reference pair of the same experiment.

The target in this data set is DNMT1 (human) (UniProt P26358). The experiment in a line: EMSA. To be noted: 0.2 uM protein, only slight binding; 20 mM HEPES, 40 mM KCl, 1 mM EDTA, 0.2 mM DTT, 0.1 mg/ml BSA, 0.1% Tween-20, 20% glycerol; pH not stated; 1 h at 37 C; 1 nM probe; native 4-20% PAGE; commercial protein; residues 1-1616; label: 5'-Cy5.5.

GUCUGUGCACCGUGUGCAUAUACAG [ecRNA-2]: the binding result is recorded as “binds more weakly”.

Regarding GGGGACACGCCCUCUGUUCCCUUAU [ecRNA-1], the binding result is “binds more weakly”.
